Data on three substances can be found in paper PMC12827997.

Sequences of proteins named here, by UniProt entry; tags and fusion partners are left off. Residues count along the entry.
UniProt O00206, residues 24-839: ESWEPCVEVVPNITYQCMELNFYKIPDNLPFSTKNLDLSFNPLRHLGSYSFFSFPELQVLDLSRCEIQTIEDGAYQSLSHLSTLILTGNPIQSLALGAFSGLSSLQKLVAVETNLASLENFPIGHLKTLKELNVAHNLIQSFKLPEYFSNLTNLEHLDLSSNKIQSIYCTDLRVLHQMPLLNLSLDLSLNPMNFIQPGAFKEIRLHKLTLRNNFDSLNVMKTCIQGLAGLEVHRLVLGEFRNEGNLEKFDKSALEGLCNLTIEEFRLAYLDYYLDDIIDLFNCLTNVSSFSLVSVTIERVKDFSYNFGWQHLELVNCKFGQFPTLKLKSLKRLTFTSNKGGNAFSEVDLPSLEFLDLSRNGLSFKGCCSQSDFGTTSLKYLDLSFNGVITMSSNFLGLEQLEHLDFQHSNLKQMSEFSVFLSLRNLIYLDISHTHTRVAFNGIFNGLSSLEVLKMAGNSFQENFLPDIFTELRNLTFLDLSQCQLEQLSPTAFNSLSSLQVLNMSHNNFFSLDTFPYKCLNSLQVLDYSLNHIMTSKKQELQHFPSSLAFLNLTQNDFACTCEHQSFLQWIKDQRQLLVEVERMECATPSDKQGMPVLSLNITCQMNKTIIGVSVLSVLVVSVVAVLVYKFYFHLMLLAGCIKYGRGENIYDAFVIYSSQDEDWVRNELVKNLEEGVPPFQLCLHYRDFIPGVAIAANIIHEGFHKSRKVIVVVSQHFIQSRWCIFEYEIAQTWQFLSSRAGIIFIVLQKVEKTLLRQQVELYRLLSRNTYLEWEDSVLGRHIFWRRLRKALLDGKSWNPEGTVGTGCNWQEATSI
UniProt P06733: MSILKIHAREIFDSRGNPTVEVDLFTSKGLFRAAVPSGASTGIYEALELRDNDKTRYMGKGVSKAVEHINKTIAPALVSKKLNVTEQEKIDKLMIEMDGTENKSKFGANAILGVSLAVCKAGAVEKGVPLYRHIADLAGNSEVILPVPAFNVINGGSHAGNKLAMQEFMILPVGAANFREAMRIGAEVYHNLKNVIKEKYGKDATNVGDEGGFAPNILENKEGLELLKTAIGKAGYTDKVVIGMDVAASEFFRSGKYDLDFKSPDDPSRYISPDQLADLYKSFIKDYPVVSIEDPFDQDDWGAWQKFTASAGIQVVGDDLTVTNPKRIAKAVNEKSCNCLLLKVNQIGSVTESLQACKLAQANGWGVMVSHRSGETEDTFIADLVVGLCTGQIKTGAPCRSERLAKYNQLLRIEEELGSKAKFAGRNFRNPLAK
UniProt O75396: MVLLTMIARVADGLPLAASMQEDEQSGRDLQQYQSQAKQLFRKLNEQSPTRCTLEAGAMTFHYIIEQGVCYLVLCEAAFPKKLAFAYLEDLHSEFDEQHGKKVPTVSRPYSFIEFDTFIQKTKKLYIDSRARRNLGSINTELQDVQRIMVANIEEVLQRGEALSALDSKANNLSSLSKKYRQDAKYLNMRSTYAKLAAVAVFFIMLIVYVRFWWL

For assay [1], the target named is Toll-like receptor 4 (TLR4) (human (endogenous in GBM cell lines)) (UniProt O00206). Description: co-IP; endogenous proteins in GBM cell lysates (IP lysis/wash buffer with protease and phosphatase inhibitors); target-specific antibody on Protein A/G magnetic beads, overnight at 4 °C; Western blot; cells untreated, shENO1, or treated with rhENO1 (1 μg/mL). (Immunoblotting shows a protein as a band on a membrane.)

The target in assay [2] is Alpha-enolase (ENO1) (human (endogenous in GBM cell lines)) (UniProt P06733). The description is as above.

Results are given in words; binding and its absence hold for the method and conditions named. In cells and extracts the contact can be indirect. Some results given as binding are weak or reduced against the parent protein; the word gives no strength.

For the substance “Alpha-enolase (ENO1) (from UniProt P06733 1-434)”, the binding result in assay [1] is reported as “binds”.

With SEC22B (from UniProt O75396 1-215), the binding result in assay [2] was “binds”.

Take “Toll-like receptor 4 (TLR4) (from UniProt O00206 24-839)”: the binding entry in assay [2] was “binds”.
